Reference: the supplement of paper PMC12067093, “Discovery and optimisation of a covalent ligand for TRIM25 and its application to targeted protein ubiquitination” (Chemical Science, 2025)
The list shows a part of the results.

Protein sequences, listed by entry. Tags and fused reporters are not part of them. Lines headed by an entry give the natural chain unless they say otherwise; changes in a name come on top.
UniProt P46063: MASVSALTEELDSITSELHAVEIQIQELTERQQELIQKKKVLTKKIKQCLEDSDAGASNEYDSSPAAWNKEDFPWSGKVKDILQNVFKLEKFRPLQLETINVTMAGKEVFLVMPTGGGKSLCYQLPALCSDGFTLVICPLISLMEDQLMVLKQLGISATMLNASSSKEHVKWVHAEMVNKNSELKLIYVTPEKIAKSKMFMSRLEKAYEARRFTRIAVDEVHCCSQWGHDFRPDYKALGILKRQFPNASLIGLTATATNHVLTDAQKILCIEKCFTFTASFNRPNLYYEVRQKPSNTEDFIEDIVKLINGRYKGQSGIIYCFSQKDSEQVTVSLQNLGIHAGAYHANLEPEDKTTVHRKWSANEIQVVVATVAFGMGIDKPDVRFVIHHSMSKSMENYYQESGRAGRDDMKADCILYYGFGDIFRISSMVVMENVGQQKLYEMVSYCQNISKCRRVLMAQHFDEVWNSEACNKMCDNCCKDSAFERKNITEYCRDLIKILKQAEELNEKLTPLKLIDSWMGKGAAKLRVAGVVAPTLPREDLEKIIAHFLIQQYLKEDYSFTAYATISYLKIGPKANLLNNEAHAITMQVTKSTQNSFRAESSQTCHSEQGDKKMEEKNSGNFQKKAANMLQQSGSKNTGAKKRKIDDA
UniProt Q9BWE0: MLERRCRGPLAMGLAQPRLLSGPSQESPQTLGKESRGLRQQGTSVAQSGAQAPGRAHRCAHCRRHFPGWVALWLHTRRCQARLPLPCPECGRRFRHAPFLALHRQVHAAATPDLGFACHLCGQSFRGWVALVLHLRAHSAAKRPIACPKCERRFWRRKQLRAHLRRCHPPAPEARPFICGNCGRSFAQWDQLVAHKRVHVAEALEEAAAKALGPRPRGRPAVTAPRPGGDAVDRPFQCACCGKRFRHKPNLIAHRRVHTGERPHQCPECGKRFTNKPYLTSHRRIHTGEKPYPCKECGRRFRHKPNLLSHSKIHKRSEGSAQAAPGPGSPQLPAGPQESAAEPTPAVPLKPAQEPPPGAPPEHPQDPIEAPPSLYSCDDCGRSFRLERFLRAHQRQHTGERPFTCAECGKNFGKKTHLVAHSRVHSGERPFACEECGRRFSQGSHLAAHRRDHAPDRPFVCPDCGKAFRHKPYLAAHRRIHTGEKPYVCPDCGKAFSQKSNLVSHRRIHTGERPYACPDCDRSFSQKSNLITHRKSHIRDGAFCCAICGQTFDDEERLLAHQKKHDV
UniProt Q13129: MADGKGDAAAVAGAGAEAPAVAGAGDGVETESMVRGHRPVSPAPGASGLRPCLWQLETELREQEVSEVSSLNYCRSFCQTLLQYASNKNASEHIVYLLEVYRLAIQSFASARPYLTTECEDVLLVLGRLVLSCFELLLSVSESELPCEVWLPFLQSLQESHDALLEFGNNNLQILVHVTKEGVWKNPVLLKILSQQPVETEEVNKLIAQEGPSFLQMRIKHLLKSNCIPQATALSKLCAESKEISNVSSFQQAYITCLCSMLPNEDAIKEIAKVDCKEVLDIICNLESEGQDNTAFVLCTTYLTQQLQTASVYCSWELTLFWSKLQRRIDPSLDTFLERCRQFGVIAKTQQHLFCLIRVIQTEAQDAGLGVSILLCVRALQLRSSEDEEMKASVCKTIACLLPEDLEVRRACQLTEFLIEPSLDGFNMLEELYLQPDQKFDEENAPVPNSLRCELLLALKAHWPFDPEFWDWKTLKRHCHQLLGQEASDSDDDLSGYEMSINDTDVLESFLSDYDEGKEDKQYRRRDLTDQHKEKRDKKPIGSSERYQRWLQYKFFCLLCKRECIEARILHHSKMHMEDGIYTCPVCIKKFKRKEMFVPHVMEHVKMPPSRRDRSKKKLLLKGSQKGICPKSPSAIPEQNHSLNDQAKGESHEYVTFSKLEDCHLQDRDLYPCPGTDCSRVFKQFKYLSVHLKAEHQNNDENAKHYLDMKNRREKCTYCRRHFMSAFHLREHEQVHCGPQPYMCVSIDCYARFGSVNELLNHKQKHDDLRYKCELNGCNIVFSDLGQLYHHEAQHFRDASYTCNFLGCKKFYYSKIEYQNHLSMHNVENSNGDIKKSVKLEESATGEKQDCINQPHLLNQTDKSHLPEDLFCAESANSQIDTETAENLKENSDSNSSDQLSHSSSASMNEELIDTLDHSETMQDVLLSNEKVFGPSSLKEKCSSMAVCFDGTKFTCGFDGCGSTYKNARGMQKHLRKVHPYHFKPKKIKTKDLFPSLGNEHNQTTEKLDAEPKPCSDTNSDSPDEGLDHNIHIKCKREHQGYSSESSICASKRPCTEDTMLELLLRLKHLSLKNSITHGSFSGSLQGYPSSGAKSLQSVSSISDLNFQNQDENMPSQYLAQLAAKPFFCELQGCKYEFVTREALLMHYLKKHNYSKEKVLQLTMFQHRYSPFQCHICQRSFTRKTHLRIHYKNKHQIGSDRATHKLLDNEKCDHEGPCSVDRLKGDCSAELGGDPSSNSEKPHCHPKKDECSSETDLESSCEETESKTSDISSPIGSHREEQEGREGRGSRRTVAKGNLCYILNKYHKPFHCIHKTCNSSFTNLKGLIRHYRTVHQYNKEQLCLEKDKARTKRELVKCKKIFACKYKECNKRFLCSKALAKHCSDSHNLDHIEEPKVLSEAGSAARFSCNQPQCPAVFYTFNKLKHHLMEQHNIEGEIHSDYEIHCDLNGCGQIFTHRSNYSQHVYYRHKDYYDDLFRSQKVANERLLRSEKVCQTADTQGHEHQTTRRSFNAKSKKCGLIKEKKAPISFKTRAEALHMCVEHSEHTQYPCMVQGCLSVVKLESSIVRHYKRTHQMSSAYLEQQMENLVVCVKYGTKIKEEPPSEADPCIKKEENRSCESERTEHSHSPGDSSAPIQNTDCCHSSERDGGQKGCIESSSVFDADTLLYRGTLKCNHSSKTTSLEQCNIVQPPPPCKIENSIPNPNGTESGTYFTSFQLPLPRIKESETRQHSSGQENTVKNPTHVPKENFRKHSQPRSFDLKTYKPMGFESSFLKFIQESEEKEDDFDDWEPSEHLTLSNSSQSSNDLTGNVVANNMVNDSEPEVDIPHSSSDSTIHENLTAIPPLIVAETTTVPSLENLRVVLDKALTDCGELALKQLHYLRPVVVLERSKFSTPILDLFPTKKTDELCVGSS
UniProt P84095: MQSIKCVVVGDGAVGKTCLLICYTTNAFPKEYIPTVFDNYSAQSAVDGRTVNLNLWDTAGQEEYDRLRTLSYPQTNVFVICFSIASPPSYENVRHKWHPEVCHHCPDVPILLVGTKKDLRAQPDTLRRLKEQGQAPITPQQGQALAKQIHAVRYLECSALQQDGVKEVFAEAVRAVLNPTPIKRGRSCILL
UniProt P40938, whole entry, looked up: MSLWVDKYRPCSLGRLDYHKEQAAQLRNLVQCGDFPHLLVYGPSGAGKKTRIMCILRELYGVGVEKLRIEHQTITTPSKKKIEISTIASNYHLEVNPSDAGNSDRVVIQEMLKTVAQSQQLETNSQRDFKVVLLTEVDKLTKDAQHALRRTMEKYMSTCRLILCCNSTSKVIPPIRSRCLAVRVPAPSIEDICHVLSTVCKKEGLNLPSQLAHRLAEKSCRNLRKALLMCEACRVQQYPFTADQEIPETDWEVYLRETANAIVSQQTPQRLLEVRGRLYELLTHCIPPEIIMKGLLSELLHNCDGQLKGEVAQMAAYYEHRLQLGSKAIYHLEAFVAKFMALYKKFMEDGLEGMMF
UniProt Q9Y508: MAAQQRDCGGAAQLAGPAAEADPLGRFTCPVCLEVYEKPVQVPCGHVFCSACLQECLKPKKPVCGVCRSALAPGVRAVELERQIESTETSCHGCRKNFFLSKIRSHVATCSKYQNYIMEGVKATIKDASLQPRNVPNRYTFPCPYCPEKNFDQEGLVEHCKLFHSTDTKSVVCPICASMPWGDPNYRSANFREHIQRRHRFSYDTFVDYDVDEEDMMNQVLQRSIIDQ
UniProt O94761: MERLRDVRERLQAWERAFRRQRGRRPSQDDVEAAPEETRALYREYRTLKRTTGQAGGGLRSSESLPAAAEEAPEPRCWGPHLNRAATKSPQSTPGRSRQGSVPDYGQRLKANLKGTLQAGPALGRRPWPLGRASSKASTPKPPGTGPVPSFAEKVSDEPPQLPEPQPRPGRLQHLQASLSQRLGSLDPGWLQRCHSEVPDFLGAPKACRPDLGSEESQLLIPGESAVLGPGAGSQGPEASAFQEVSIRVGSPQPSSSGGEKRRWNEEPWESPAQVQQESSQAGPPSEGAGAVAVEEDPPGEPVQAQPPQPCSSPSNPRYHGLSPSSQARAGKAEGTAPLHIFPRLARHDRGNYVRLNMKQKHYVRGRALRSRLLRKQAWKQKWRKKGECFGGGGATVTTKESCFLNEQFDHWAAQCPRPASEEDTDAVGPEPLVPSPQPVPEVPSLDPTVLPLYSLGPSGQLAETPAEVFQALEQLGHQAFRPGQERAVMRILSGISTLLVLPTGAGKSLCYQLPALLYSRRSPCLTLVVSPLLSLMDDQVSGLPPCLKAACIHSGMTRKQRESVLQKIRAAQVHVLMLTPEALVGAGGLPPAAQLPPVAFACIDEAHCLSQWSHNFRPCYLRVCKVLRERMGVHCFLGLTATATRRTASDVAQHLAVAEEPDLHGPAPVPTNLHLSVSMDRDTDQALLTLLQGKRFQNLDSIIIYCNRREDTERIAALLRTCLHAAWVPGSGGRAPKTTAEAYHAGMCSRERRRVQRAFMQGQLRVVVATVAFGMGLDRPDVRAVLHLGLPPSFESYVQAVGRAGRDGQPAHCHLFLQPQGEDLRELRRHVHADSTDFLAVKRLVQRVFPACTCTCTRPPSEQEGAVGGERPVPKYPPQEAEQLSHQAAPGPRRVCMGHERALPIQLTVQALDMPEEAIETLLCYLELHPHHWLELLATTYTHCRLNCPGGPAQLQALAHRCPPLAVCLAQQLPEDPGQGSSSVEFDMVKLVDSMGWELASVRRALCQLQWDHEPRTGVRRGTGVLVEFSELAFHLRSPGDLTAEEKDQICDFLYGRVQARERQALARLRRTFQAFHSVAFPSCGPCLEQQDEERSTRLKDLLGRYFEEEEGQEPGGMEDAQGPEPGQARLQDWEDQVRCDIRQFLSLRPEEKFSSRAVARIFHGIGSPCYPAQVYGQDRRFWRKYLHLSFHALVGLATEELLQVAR
UniProt Q8WZ73: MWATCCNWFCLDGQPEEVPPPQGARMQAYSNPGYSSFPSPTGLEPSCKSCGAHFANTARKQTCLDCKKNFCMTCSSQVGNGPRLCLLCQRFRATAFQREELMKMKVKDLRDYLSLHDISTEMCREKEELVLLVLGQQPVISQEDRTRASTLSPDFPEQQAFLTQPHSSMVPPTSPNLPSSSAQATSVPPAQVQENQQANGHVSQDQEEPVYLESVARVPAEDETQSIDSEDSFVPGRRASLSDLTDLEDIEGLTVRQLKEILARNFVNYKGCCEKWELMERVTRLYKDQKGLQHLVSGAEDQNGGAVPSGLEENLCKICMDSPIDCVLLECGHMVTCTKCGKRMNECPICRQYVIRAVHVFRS
UniProt O00584, whole entry, looked up: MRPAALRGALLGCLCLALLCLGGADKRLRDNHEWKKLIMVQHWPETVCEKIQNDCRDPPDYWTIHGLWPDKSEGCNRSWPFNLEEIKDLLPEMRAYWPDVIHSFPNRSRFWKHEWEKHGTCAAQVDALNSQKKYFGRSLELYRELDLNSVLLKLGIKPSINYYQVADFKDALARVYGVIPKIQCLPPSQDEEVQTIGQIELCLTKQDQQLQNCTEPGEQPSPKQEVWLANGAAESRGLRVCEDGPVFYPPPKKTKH
UniProt P51606: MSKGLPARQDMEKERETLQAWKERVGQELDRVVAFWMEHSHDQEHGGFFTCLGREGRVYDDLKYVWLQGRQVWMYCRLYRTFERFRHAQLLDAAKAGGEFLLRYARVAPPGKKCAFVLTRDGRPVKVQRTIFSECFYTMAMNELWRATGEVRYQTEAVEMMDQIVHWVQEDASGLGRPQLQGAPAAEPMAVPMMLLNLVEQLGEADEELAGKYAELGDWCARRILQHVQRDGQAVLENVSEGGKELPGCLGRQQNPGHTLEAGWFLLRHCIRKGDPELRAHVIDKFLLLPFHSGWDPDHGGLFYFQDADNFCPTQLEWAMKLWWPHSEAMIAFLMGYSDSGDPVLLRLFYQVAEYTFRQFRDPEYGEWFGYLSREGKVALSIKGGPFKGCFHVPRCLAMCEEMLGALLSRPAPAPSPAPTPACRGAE
UniProt Q06587: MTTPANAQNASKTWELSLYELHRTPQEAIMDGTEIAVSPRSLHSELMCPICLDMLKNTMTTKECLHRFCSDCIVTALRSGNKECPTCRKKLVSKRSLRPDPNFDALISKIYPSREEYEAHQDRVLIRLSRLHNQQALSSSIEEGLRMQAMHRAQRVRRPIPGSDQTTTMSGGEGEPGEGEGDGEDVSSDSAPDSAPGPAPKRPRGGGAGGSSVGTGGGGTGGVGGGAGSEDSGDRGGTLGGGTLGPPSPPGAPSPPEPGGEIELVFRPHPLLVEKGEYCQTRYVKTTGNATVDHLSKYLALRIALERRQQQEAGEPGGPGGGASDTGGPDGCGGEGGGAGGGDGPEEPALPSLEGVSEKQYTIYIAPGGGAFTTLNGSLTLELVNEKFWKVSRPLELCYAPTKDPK

Compound: Cc1cc(ccc1-c1ccccc1)C(=O)N1CCCN(CC1)C(=O)CCl [compound 10]
Experiment: probe-labelled cysteine peptide fold change vs DMSO (competition) (log2 fold change); higher = less target engagement (more negative = stronger competition)
Settings: THP-1, incubation time: 4 h
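Also: competitive profiling in live THP-1 cells: cysteine peptides tagged with an iodoacetamide desthiobiotin (IA-DTB) probe, intensity after compound treatment relative to DMSO-treated cells.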

Row | Target | probe-labelled cysteine peptide fold change (10 µM) | probe-labelled cysteine peptide fold change (50 µM)
1 | RECQL_P46063_321_YKGQSGIIYCFSQK (UniProt P46063) | -0.137 | -0.479
2 | RIOX1_Q9H6W3_409_GFIHQAECQDGVHSLHLTLSTYQR (UniProt Q9H6W3) | 0.062 | 0.191
3 | REPIN1_Q9BWE0_433+436_VHSGERPFACEECGR (UniProt Q9BWE0) | -0.108 | -0.289
4 | RLF_Q13129_355_TQQHLFCLIR (UniProt Q13129) | -0.081 | -0.185
5 | RFC4_P35249_180_FCLICNYVSR (UniProt P35249) | -0.0567 | -0.0404
6 | RHOG_P84095_105_WHPEVCHHCPDVPILLVGTKK (UniProt P84095) | 0.0223 | -0.622
7 | RNF126_Q9BV68_13_YFCHCCSVEIVPR (UniProt Q9BV68) | 0.0903 | -0.161
8 | RFC3_P40938_32_NLVQCGDFPHLLVYGPSGAGKK (UniProt P40938) | -0.11 | -0.186
9 | RNF114_Q9Y508_64+67_KPVCGVCR (UniProt Q9Y508) | -0.15 | -0.53
10 | RIPK1_Q13546_34_VSLCFHR (UniProt Q13546) | 0.0991 | -0.0753
11 | RELA_Q04206_105_DCRDGFYEAELCPDR (UniProt Q04206) | -0.0366 | -0.399
12 | RNASEL_Q05823_198_ILLDEMGADVNACDNMGR (UniProt Q05823) | -0.233 | -0.0122
13 | REL_Q04864_143_QLNDIEDCDLNVVR (UniProt Q04864) | 0.225 | 0.0252
14 | RECQL4_O94761_814_DGQPAHCHLFLQPQGEDLR (UniProt O94761) | -0.0251 | -0.0847
15 | RHOT1_Q8IXI2_421_CNVIGVK (UniProt Q8IXI2) | 0.115 | 0.201
16 | RFFL_Q8WZ73_337_ICMDSPIDCVLLECGHMVTCTK (UniProt Q8WZ73) | 0.195 | -0.165
17 | RLF_Q13129_1218_CDHEGPCSVDR (UniProt Q13129) | -0.112 | -0.412
18 | RIN1_Q13671_623_RLPATHCFQHLLR (UniProt Q13671) | -0.136 | -0.742
19 | RICTOR_Q6R327_893_TGCHLLEVQNIITELCR (UniProt Q6R327) | 0.0187 | -0.187
20 | RFC3_P40938_32_NLVQCGDFPHLLVYGPSGAGK (UniProt P40938) | -0.122 | 0.124
21 | RFC2_P35250_171_FALACNASDK (UniProt P35250) | 0.0304 | 0.151

Row | Target | probe-labelled cysteine peptide fold change (10 µM) | probe-labelled cysteine peptide fold change (50 µM)
22 | RFC3_P40938_193_VPAPSIEDICHVLSTVCK (UniProt P40938) | 0.191 | 0.235
23 | RLF_Q13129_663_LEDCHLQDR (UniProt Q13129) | 0.0947 | -0.0164
24 | RLF_Q13129_1212+1218_CDHEGPCSVDR (UniProt Q13129) | -0.00264 | 0.122
25 | RGL2_O15211_284_DRPGHSHLCPSVR (UniProt O15211) | 0.0319 | -0.00699
26 | RLF_Q13129_1212_CDHEGPCSVDR (UniProt Q13129) | 0.0937 | 0.0143
27 | RNASET2_O00584_48_KLIMVQHWPETVCEK (UniProt O00584) | -0.108 | -0.333
28 | RLF_Q13129_1300_GNLCYILNK (UniProt Q13129) | -0.359 | -0.737
29 | RNASEH2A_O75792_52_GPVLGPMVYAICYCPLPR (UniProt O75792) | 0.139 | 0.155
30 | RENBP_P51606_400_CLAMCEEMLGALLSR (UniProt P51606) | 0.331 | 0.272
31 | RHOG_P84095_102_WHPEVCHHCPDVPILLVGTK (UniProt P84095) | 0.159 | 0.0491
32 | RNF146_Q9NTX7-2_4_AGCGEIDHSINMLPTNR (UniProt Q9NTX7) | 0.318 | -0.0532
33 | RECQL4_O94761_897_RVCMGHER (UniProt O94761) | -0.174 | -0.567
34 | RIC1_Q4ADV7_127_EEQCAPALNLEMR (UniProt Q4ADV7) | -0.167 | 0.064
35 | RING1_Q06587_398_VSRPLELCYAPTK (UniProt Q06587) | -0.307 | -0.358
36 | REPIN1_Q9BWE0_269_VHTGERPHQCPECGKR (UniProt Q9BWE0) | 0.193 | -0.0358
37 | RING1_Q06587_72_FCSDCIVTALR (UniProt Q06587) | 0.348 | 0.0847
38 | RNASET2_O00584_241_VCEDGPVFYPPPKK (UniProt O00584) | -0.361 | -0.258
39 | RGS14_O43566-5_207_ALVLDQDCTVLADQEVR (UniProt O43566) | -0.12 | 0.47
40 | RENBP_P51606_51_VVAFWMEHSHDQEHGGFFTCLGR (UniProt P51606) | -0.139 | 0.0206
41 | RHOT2_Q8IXI1_389_SCLGHLGYLGYPTLCEQDQAHAITVTR (UniProt Q8IXI1) | 0.0779 | 0.238
